{
  "source": "patent US11850283B2",
  "about": "“Liponucleotide-based therapy for asthma” (priority 2017, dated 2023)",
  "assay": "i.p. CDP-CHO treatment of mock-inoculated mice, lung function",
  "format": "in vivo",
  "settings": "day 6, CDP-CHO 100 μg/mouse i.p.",
  "data": [
    {"compound": "C[N+](C)(C)CCO[P@TB16](=O)(O)O[P@TB16](=O)(O)OC[C@H]1O[C@@H](n2ccc(N)nc2=O)[C@H](O)[C@@H]1O", "note": "[CDP-CHO, CDP-choline]", "values": [
      {"measurement": "HR (bpm)", "value": "730 ± 10", "unit": "bpm"},
      {"measurement": "SaO2 (%)", "value": "99.0 ± 0.2", "unit": "%"}
    ]}
  ]
}
